Test results taken from article PMC9279154 (Nature, 2022).
No constants are given. Whether binding was seen depends on the method and setting.

By UniProt entry, the sequences of proteins in these tests, tags left out. Where a name states a change or a piece, a line headed by the entry shows the natural chain unless it says otherwise.
UniProt A1ZAW0: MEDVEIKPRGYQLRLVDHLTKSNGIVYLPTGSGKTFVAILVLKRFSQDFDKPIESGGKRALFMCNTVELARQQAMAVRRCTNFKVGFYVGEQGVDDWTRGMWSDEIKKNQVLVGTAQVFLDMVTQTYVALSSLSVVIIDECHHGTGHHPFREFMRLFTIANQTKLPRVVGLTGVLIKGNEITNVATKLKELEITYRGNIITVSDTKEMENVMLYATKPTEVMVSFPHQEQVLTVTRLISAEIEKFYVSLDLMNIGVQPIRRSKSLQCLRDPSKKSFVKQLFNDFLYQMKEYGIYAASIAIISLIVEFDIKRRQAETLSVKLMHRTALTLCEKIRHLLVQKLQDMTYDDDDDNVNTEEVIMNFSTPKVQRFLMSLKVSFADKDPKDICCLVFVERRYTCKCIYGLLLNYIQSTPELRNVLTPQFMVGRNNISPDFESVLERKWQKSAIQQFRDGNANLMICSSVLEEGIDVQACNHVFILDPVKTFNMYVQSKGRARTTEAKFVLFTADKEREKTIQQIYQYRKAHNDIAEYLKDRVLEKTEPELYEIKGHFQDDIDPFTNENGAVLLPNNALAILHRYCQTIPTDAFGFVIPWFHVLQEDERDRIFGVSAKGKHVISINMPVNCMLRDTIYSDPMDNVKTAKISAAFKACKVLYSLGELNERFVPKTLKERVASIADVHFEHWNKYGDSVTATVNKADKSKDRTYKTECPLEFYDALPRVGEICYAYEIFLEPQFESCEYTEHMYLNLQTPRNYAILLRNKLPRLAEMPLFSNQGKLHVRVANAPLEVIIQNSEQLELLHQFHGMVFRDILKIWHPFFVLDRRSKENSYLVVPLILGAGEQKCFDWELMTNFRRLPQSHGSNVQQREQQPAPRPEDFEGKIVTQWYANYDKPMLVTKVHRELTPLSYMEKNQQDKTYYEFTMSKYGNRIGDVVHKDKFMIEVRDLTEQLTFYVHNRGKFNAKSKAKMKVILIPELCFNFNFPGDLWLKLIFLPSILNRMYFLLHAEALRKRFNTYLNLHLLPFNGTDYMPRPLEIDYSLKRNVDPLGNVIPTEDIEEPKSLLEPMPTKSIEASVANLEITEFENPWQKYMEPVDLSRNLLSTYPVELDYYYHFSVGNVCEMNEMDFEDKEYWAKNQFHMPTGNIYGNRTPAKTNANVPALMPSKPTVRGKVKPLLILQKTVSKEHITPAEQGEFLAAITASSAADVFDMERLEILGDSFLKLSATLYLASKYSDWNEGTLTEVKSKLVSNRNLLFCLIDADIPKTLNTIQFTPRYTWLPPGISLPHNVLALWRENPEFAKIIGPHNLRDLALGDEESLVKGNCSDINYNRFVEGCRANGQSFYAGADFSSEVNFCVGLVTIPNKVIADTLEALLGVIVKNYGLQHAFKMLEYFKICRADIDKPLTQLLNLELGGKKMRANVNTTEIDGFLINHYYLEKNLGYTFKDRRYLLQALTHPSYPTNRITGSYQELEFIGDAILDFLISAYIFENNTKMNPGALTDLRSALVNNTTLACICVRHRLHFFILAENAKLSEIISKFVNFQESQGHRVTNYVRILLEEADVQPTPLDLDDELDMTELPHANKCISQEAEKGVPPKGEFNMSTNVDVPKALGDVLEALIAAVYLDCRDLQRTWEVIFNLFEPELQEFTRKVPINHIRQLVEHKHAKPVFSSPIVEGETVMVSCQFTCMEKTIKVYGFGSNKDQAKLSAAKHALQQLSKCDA

Target: Dcr-2 R1330A (Drosophila melanogaster) (UniProt A1ZAW0)
Test: SEC; overlay of size exclusion chromatography of Dcr-2^WT, Dcr-2^R1330A and Dcr-2^R1308A/R1309A/R1330A, each with Loqs-PD and dsRNA; both purified

Substance: Dcr-2 R1330A (from UniProt A1ZAW0 1-1722) (enzyme)
- binding: no binding
